# Results taken from patent publication US20180171382.
# Construct, isoform or probe ends are uncertain for at least one entry. Results from cells or extracts need not show a direct contact.
# Tests used:
# Assay in all cases: flow cytometry
# [1] = tested on: B cell receptor (IgM-BCR, membrane IgM) on Ramos cells; conditions: protein on the cell surface; protein details: endogenous, IgD KO Ramos cells; label: fluorescent (FACS staining); single-stranded DNA
# [2] = tested on: B cell receptor (IgD-BCR, membrane IgD) on Ramos cells; conditions: protein on the cell surface; protein details: endogenous, IgM KO Ramos cells; label: fluorescent (FACS staining); single-stranded DNA
# [3] = tested on: B cell receptor (BCR) on Ramos cells; conditions: Oligo Extensions complementary to Z-DNA Probes attached by synthesis; bPHA on Ramos cell surface; TD05+ and TD05- pair detects resting BCR oligomers; negative without Z-DNA probes; protein on the cell surface; protein details: endogenous, Ramos cells; single-stranded DNA; variant of TD05 aptamer
sequence,measurement,setting,value
ACCGGGAGGATAGTTCGGTGGCTGTTCAGGGTCTCCTCCCGGTG [TD05 aptamer],binding result,[1],binds
same,binding result,[2],binds
ACCGGGAGGATAGTTCGGTGGCTGTTCAGGGTCTCCTCCCGGTG [TD05+/TD05- aptamer pair with Oligo Extensions],binding result,[3],binds
